Measured values published in PubChem BioAssay AID504444 (National Center for Advancing Translational Sciences (NCATS), 2011).
The whole screen tested about 360,000 compounds, of which about 7,500 (2.1%) were called active. This list was built around the results that the source calls inconclusive (neither active nor inactive); the mix of calls is not that of the screen. The call rests on the fitted dose curve; in most records, active means well fitted inhibition curve with a large enough effect; inconclusive means small, poorly fitted or top-dose-only effect, or effect the other way; inactive means flat fitted curve, though single readings scatter. Potencies of inconclusive entries are doubtful fits and often do not repeat.

assay: Nrf2 qHTS screen for inhibitors; conditions: A549 ARE-Fluc reporter, luciferase luminescence, 18-24 h; activity change, negative = inhibition: at 46 µM (top of the series); further: nearly all actives have a fitted effect of over 60% in size
Procedure, shortened: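 Concentration-response testing used A549 ARE_Fluc cells at 5000 cells/well. Following an 18-24 h compound incubation, viability was read by fluorescence (Ex 405/Em 525) and luciferase output by luminescence.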
On the % scale 0 is the no-effect control and ±100 the full control effect; potency means the concentration at half of the fitted maximal effect.

Structure (SMILES) | Potency | activity change, negative = inhibition
CC[N+]1(CC)CC2=Cc3ccccc3CC2C1 (configuration not stated) | active: 23.1 µM | 
Cc1ccc(-n2c(SCC(=O)Nc3ccc4c(c3)OCO4)nnc2-c2ccccn2)cc1 | inconclusive: 1.46 µM [falling, full curve, poor fit] | 
COc1ccc(C(=O)OCC(=O)c2ccc3c(c2)NC(=O)CO3)cc1OC | inconclusive: 32.6 µM [falling, partial curve, poor fit] | 
O=C(NCc1cccs1)c1cc(-c2ccccc2)nc2ccccc12 | inactive | 
N#Cc1ccc(C(=O)Nc2ccc(S(=O)(=O)NC3=NCCCCC3)cc2)cc1 | inconclusive: 23.1 µM [falling, single point] | 
S=C(NNc1ccnc2cc(Cl)ccc12)Nc1ccccc1Cl | inconclusive: 29.1 µM [falling, single point] | 
CC(C)c1ccc(NC(=O)C2CCCN(S(=O)(=O)c3ccc4c(c3)C(C)(C)C(=O)N4C)C2)cc1 (configuration not stated) | inconclusive: 20.6 µM [falling, single point] | 
Cc1nc2ccccc2n1Cc1ccccc1Br | inactive | 
CCCCCCCCNC(=S)NCCN1CCCCC1 | inactive | 
Cc1ccc(N=CC2=C(O)CC(c3ccc(Cl)cc3)CC2=O)cc1 (configuration not stated) | inconclusive: 6.51 µM [falling, partial curve, poor fit] | 
CCOC(=O)CN(Cc1cc(OC)cc(N(C)C)c1OC)C(=O)C1CC(CO[Si](C)(C)C(C)(C)C)=CN1C(=O)OC(C)(C)C (configuration not stated) | inactive | 
Cc1ccc(S(=O)(=O)NC2c3cccc4cccc(c34)C2Sc2nncn2C)cc1 (configuration not stated) | inactive | 
O=C1OC(c2ccc(F)cc2)=N/C1=C\C=C/c1ccccc1 | inconclusive: 6.51 µM [activator, single point] | 
Cc1ccc(-n2nc(C)c3c(C(=O)NCc4ccccc4)cc(C4CC4)nc32)cc1 | inactive | 
COc1ccc(CN2CCN(C(=O)CCC(=O)Nc3nnc(CC(C)C)s3)CC2)cc1F | inconclusive: 3.66 µM [falling, partial curve] | 
COc1ccccc1Nc1nn2c(=O)c3ccc(C(=O)N4CCCC(C)C4)cc3nc2s1 (configuration not stated) | inconclusive: 29.1 µM [falling, single point] | inactive: 2.74% [at 9.27 µM]
Fc1ccc(C2=CC(c3ccco3)n3nnnc3N2)cc1 (configuration not stated) | inconclusive: 0.651 µM [activator, partial curve, poor fit] | 
CC1=CC(C)C2(CO)COC(c3ccccc3O)C1C2C (configuration not stated) | inconclusive: 16.4 µM [falling, partial curve, poor fit] | 
COc1ccc(C)cc1NC(=O)CN1CCN(S(=O)(=O)c2ccc(F)cc2)CC1 | inconclusive: 6.51 µM [falling, partial curve, poor fit] | 
COc1ccc(N2CCN(Cc3nc4ccsc4c(=O)[nH]3)CC2)cc1 | inactive | 
O=c1[nH]c(Nc2ccccc2Cl)cc2ccccc12 | inactive | 
O=C(c1cc(-c2ccncc2)nc2ccc(Cl)cc12)N1CCN(Cc2ccc3c(c2)OCO3)CC1 | inactive | 

Structure (SMILES) | Potency | activity change, negative = inhibition
COc1ccc(C2CC(=O)N(Cc3cccc(F)c3)c3ccccc3S2)cc1 (configuration not stated) | inconclusive: 29.1 µM [falling, single point] | 
O=C(c1ccc(S(=O)(=O)N2CCCCCC2)cc1)N1CCC(CN2C(=O)c3cccc4cccc(c34)C2=O)CC1 | inconclusive: 16.4 µM [falling, partial curve, poor fit] | 
Cc1n[nH]c(=O)c2c(NC(=O)CSc3ccc(F)cc3)oc(C)c12 | inactive | 
Cc1[nH]c2ccccc2c1SCCNC(=O)c1ccc(S(=O)(=O)N2CCCC2)cc1 | inconclusive: 1.84 µM [falling, partial curve, poor fit] | 
Cc1ccccc1CNC(=O)Cc1cccs1 | inconclusive: 9.2 µM [activator, partial curve] | 
C=CCOc1c(Cl)cc(C2NC(=O)NC(C)=C2C(=O)OC)cc1Cl (configuration not stated) | inconclusive: 32.6 µM [falling, partial curve, poor fit] | 
COc1ccc(Nc2nc(N)c3cc(OC)c(OC)cc3n2)cc1 | inactive | 
O=C(NNc1ccccn1)C(=O)NNS(=O)(=O)c1ccc(Cl)cc1 | inconclusive: 29.1 µM [falling, single point] | 
Cc1cc(/C=N\NC(=O)c2cccs2)c(C)n1-c1ccc2ncccc2c1 | inconclusive: 1.03 µM [activator, partial curve] | 
CC(C)C1Nc2ccc(C(=O)NC3CCCCC3)cc2NC1=O (configuration not stated) | inconclusive: 14.6 µM [falling, partial curve, poor fit] | 
CCc1ccc(C(=O)NN(C(=O)c2ccc(CC)cc2)C(C)(C)C)cc1 | inactive | 
CCOC(=O)c1c(NC(=O)CSc2nnc(C)s2)sc2c1CCC(CC)C2 (configuration not stated) | inconclusive: 29.1 µM [falling, single point] | 
COc1ccc(NC(=O)c2cccc([N+](=O)[O-])c2)cc1 | inconclusive: 1.64 µM [activator, full curve] | 
Cc1cccc(N2CCN(C(=O)c3cc4cc(F)ccc4[nH]3)CC2)c1C | inactive | 
CNC(=S)NC1CC2CCCC(C1)N2Cc1ccco1 (configuration not stated) | inconclusive: 11.6 µM [activator, partial curve, poor fit] | 
O=C(O)c1ccc(N/N=C2/CCCc3ccccc32)cc1 | inconclusive: 20.6 µM [activator, single point] | 
Cn1cc(C(=O)C(=O)N2CCc3ccccc32)c2ccccc21 | inconclusive: 23.1 µM [activator, single point] | 
COc1ccc(CN2CCN(C(=O)C3CC(=O)N(C4CCCCCC4)C3)CC2)c(OC)c1OC (configuration not stated) | inconclusive: 16.4 µM [falling, partial curve, poor fit] | 
CCN(Cc1ccncc1)C(=O)c1ccc2c(c1)S(=O)(=O)c1ccccc1C2=O | inconclusive: 5.8 µM [falling, partial curve, poor fit] | 
Cn1ncc2c(O/N=C(\N)c3ccc(C(F)(F)F)cc3)ncnc21 | active: 18.4 µM | 
CCOc1ccc2cc(/C=C/C(=O)c3ccco3)c(Cl)nc2c1 | inconclusive: 10.3 µM [activator, partial curve] | 
CCN(CC)c1ccc2c(C)c(-c3ccc(N)cc3)c(=O)oc2c1 | inconclusive: 29.1 µM [activator, single point] | 

A few values from the entries so far:
CCc1ccc(C(=O)NN(C(=O)c2ccc(CC)cc2)C(C)(C)C)cc1 – Potency: inactive
CCOc1ccc2cc(/C=C/C(=O)c3ccco3)c(Cl)nc2c1 – Potency: inconclusive: 10.3 µM [activator, partial curve]
Cc1cccc(N2CCN(C(=O)c3cc4cc(F)ccc4[nH]3)CC2)c1C – Potency: inactive
O=C(NNc1ccccn1)C(=O)NNS(=O)(=O)c1ccc(Cl)cc1 – Potency: inconclusive: 29.1 µM [falling, single point]
Cn1cc(C(=O)C(=O)N2CCc3ccccc32)c2ccccc21 – Potency: inconclusive: 23.1 µM [activator, single point]

Remaining list, next part

Structure (SMILES) | Potency | activity change, negative = inhibition
CC[C@]12c3[nH]c4cc(CCC(=O)N(C)C)ccc4c3CCN1C(=O)[C@@H](CC(=O)NC/C=C(\C)CCC=C(C)C)C[C@@H]2C(=O)N1CCN(C(=O)c2ccco2)CC1 | inconclusive: 20.6 µM [falling, single point] | 
CC(=O)OCC1OC(n2cc(F)c(=O)[nH]c2=O)C(OC(C)=O)C1OC(C)=O (configuration not stated) | inconclusive: 18.4 µM [falling, single point] | 
Cc1nn(-c2ccccc2)c(Cl)c1/C=C1\SC(=S)N(CCCCCC(=O)O)C1=O | inactive | 
Cc1cccc(-c2nc(C#N)c(NCc3ccco3)o2)c1 | inconclusive: 3.66 µM [activator, partial curve, poor fit] | 
COc1ccc(C(=O)Nc2nnc(S(=O)(=O)N(CC(C)C)c3ccc(C)cc3)s2)cc1OC | inactive | 
Cc1ncc([N+](=O)[O-])n1CCOC(=O)Nc1ccc(Cl)c(Cl)c1 | inconclusive: 23.1 µM [falling, partial curve, poor fit] | 
CCOC(=O)c1sc(NC(=O)c2ccncc2)c(C#N)c1C | active: 23.1 µM | 
CC(NC(=S)Nc1ccc(F)cc1)c1ccccc1 (configuration not stated) | inconclusive: 25.9 µM [falling, single point] | 
O=C(Cc1c(F)cccc1Cl)Nc1ncc([N+](=O)[O-])s1 | active: 16.4 µM | 
CCOc1ccc(S(=O)(=O)N2CCN(C(=O)c3oc4ccc(OC)cc4c3C)CC2)cc1 | inconclusive: 23.1 µM [falling, single point] | 
O=C(c1ccco1)N1CCN(CC(=O)N(C2CCCCC2)C2CCS(=O)(=O)C2)CC1 (configuration not stated) | inconclusive: 25.9 µM [activator, single point] | 
Cc1cc(C)c(SCCc2ccncc2)c(C)c1 | active: 16.4 µM | 
CC(=O)N(Cc1ccccc1)Cc1nc2sc(C)c(C)c2c(=O)[nH]1 | inconclusive: 25.9 µM [falling, partial curve, poor fit] | 
COc1cc(OC)cc(C(=O)N2CCN(Cc3ccccc3C(F)(F)F)CC2)c1 | inconclusive: 14.6 µM [falling, partial curve, poor fit] | 
COc1ccc(CC(=O)Nc2nc3ccc(F)cc3s2)cc1S(=O)(=O)N1CCOCC1 | inconclusive: 25.9 µM [falling, single point] | 
CCOC(=O)Cn1c(=NC(=O)c2ccc([N+](=O)[O-])s2)sc2ccccc21 | inconclusive: 23.1 µM [falling, single point] | 
CC(/C=N/NC(=O)Cn1cnc2ccccc21)=C\c1ccccc1 | inconclusive: 29.1 µM [falling, single point] | 
COc1ccc(NC(=O)CO/N=C/C(=O)Nc2ccccc2C)c([N+](=O)[O-])c1 | inconclusive: 20.6 µM [activator, partial curve, poor fit] | 
Cc1nc2ccc(NC(=S)N3CCCC3)cc2nc1C | inactive | 
CC1CN(S(=O)(=O)c2cccc(C(=O)OC(C)C(=O)NC3CCCCC3C)c2)CC(C)O1 (configuration not stated) | inactive | 
O=C(O)CSc1nnc(COc2ccc([N+](=O)[O-])cc2)n1-c1ccccc1 | inconclusive: 29.1 µM [falling, single point] | 
Cc1ccc(/C=N/Nc2ncc(Cl)cc2Cl)s1 | inconclusive: 13 µM [falling, partial curve, poor fit] | 
